Source: patent US20100166707A1
No constants are given. Whether binding was seen depends on the method and setting. In cells and extracts the contact can be indirect. Some results given as binding are weak or reduced against the parent protein; the word gives no strength. Where a sequence is shown, tags or fusion partners need not be part of it.

What was measured:
human Sipa-1 (human) [1] = biological target: T1, human Sipa-1 (human) (UniProt Q96FS4); test: co-immunoprecipitation from co-transfected cells, immunoblot
T1 sequence (looked up): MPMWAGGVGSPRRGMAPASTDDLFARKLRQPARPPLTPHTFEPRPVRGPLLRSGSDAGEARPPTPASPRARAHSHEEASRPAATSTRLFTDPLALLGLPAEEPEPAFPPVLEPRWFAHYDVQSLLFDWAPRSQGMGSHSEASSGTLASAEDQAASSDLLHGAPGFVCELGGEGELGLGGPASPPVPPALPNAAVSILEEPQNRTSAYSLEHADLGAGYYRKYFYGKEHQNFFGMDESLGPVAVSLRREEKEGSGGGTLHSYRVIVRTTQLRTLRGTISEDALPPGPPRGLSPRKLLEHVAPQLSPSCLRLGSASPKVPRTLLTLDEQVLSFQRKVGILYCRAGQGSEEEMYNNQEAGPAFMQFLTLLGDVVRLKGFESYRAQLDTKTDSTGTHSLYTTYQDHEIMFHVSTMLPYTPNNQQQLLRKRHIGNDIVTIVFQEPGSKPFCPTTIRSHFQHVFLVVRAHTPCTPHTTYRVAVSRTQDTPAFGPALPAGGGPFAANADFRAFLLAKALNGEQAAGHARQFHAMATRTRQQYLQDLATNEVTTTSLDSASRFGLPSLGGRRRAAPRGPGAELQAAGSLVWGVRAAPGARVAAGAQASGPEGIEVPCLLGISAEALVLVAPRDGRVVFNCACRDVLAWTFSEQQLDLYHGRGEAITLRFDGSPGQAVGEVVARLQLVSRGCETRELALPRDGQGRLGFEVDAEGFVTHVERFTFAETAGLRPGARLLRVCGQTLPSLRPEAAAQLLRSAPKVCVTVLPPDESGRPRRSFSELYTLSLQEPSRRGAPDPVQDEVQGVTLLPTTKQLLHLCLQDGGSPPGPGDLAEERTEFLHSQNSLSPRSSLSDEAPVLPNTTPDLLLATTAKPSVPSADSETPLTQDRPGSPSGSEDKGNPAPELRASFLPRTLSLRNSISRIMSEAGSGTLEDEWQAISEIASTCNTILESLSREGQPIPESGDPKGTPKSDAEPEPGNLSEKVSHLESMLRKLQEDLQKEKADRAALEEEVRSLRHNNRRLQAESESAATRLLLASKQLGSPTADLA

human Sipa-1 (human) [2] = biological target: T1, human Sipa-1 (human); test: recap of Example 1 (yeast two hybrid, co-immunoprecipitation)

binding (human Sipa-1 (human) [1]): binds
binding (human Sipa-1 (human) [2]): binds
B1: Anakin expressed from pcDNA3-Anakin (detected with anti-V5 antibody) (protein, not shown: small tags and cut ends)
chain: MALAMQSSEFQFAQRLASSEKGVRDRAVRKLRQYLSARTQSDTGSFSQEELLKIWKGLFYCMWVQDEPLLQEELANIISQLIHVVNSLEAQYLFIQTFWQTMNREWQGIDKLQLDKYYMLIRLVLRQSFEVLKRNAWEESQITLFLDILMKEILSPESQSPNGVRTHLIDVYLEELTTVGGAELLADQNLKLIDPFCRIAAKTKDHTLAQTVARGVFEVIVDQSACVPEESVEERKTKEDGSGFPTKALACRKAVSGKKAALDECLRDGVIGSRERDICAALKDSGSPLQFDYKAVADRLLEIANSKSTPPFNRKRLCRLVRKFQDLCEGNGAPLSSAEDNGQRRHKRKRKKLLESEKGDTVSPAAEEDSGGHIHKKKRKKRKRSHFQPDTQNLDAVAVPKVPDSESEPDTAQRQAPCGQACVTEPTAEAVSSIGENSSKPTPVMPIHNKRKRPRKKKLRAHKEICKSTTLPQEDMSKNDAVSGHSQSSAAHISSSEGVQAQKRKRKLGALPDSSSDLPVQKSGTPTSPVEGKDGQTTLPRCKRSQKKTASSTLDPCDPSSQKPAISKKKKKTMKLMSNGVLESNPGQIQALGSNRTLKKPLKTEDDFVKFDTRFLPKPLFFRKAKNSSATRPQGPAGQLNKTPSSSKKVTFGLNRNMTAEFKKTDKSILVSPTGLSRVAFNPEQRPLHGVLKTATSSPASTPLSPMRLPATTPKRRPRAADFF
